# Patent US20210322346A1, “CHEMICALLY MODIFIED CURCUMINS FOR USE IN THE PRODUCTION OF LIPOXINS” (The Research Foundation for The State University of New York, priority 2015, published 2021)
# At least one compound was matched to its structure with a doubt left.
# Key:
# [1] = tested on: peritoneal macrophages and PMNs; test: Peritoneal exudate macrophage/PMN counts and Boyden chamber chemotaxis in diabetic rats; format: in vivo, rat; settings: STZ-diabetic rats, 30 mg/kg oral once per day for 3 weeks
# Lipoxin A4 = Lipoxin A4 ELISA in macrophage conditioned media, CFE and serum of diabetic rats; format: in vivo, rat; settings: STZ-diabetic rats, 30 mg/kg oral once per day for 3 weeks
# Experimental: Adult rats were made diabetic by I.V. injection of streptozotocin; non-diabetic rats served as controls (n=6 rats per group; all groups). Half of the diabetics (blood glucose >500 mg/dl) were orally administered CMC2.24 (30 mg/kg) once per day for 3 weeks; untreated diabetics (D) and N rats received vehicle alone. PEs were collected at time=0 (ie, before thioglycollate injection into peritoneal cavity). Resident macrophages were isolated from PEs, then incubated in cell culture for 13 hours (370 C; 95% air/5% CO2 atmosphere). Lipoxin A4 levels were measured by ELISA (a) in cell culture serum-free conditioned media; (b) in the cell-free exudates (CFEs); and (c) in serum.
# [2] = tested on: IL-1β relative to lipoxin A4; test: Experiment B: IL-1β/lipoxin A4 ratio in LPS-exposed macrophages in culture; format: cell-based, rat; settings: LPS (100 ng/ml)-exposed macrophages, CMC2.24 2 μM
# Experimental: In the second experiment, macrophages (chronic inflammatory cells), were collected and counted from the peritoneal washes of the six non-diabetic control rats. These cells were then pooled and incubated under different in vitro conditions including: group 1, control Møs; group 2, Møs incubated with lipopolysaccharide (LPS)/endotoxin at 100 ng/ml, final concentration, added to the culture media; group 3, Møs exposed to LPS but treated with CMC2.24 at a final concentration of 2 μM; and group 4, like group 3 except that CMC2.24 was increased to 5 μM (note that in this cell culture experiment, sufficient IL-6 was secreted by the LPS-exposed Møs unlike Experiment A, above).
# [3] = tested on: elastase/LPS-treated COPD mice; test: Lung histopathology in elastase/LPS COPD mice challenged with PM2.5; format: in vivo, mouse
# [4] = tested on: elastase/LPS-treated COPD mice; test: Morphometry: mean linear intercept (chord length) in COPD mice; format: in vivo, mouse; settings: COPD mice exposed to PM2.5, treated; p<0.01
# Experimental: Elastase and LPS exposure: A total of 180 male and 180 female WT mice (8-12 weeks old) were used for all experiments. Experiments were performed in triplicate for each group of age- and gender-matched mice. Animals were exposed by the intranasal route to 10 μl saline containing 1.2 units of porcine pancreatic elastase (Elastin Products, Owensville, Mo.) on Tuesday and 10 μl saline containing 7 μg (−70 endotoxin units) of LPS from Escherichia coli O26:B6 (Sigma-Aldrich, St. Louis, Mo.) on Friday of each week for four consecutive weeks.
# 3 mg of CMC2.24 powder were dissolved in 1 mL suspension of 2% Carboxymethyl cellulose vehicle for the daily oral administration of CMC2.24 (40 mg/kg). Vehicle alone was administered to the control group. Both CMC2.24 and vehicle control were administered once daily over the 7-day protocol by gavage (Zhang, Y. et al. 2010; Elburki, M. S. et al. 2014).
# Morphometry—Air Space Enlargement: In an effort to quantitate alveolar air space enlargement, the Mean Linear Intercept (MLI) was implemented. […] Afterwards, seven equally spaced lines were then drawn within the guard zone, and directly measured by manual use of a ruler. Starting from the left, the line was scanned for any intersections with the alveolar walls and measured until the following intersection with the alveolar surface on the right. […]
# [5] = tested on: elastase/LPS-treated COPD mice; test: Behavioral testing and inverted screen test (muscle strength) in COPD mice; format: in vivo, mouse; settings: for overall physical activity: COPD mice challenged with PM2.5
# [6] = tested on: Human lung epithelial cell line (A549); test: Cell viability by CCK-8 assay in A549 cells; format: cell-based; settings: pretreatment more than 5 μM for 0.5 h, PM2.5 100 μg/ml 24 h
# Experimental: Human lung epithelial cell line (A549) and primary alveolar macrophage cell culture: Human lung epithelial cell line (A549, ATCC #CCL-185) was purchased from ATCC (Manassas, Va.); and primary alveolar macrophages were prepared from healthy adult animals (swine). A549 cells and primary alveolar macrophages were cultured in RPMI Media 1640 medium supplemented with 10% (v/v) FBS, 1% (v/v) L-glutamine (200 mM) and 1% (v/v) Antibiotic-Antimycotic antibiotics at 37° C. in a humidified 5% CO2 incubator.
# CMC 2.24 treatment and PM2.5 exposure: The cells were subcultured when cells were grown to about 70% confluency. […]
# Analysis of cell viability by CCK-8 assay: In order to study the effect of CMC2.24 in A549 cells and primary alveolar macrophages after PM2.5 exposure, cell viability was determined using Cell Counting Kit (CCK)-8 kit (Sigma-Aldrich, MO, USA) according to the manufacturer's instructions, A549 cells (0.5×10^4/well) and primary macrophages (1×10^4/well) were cultured in 96-well plates for 24 h and 6 h, respectively; the cells were then exposed to various concentrations of CMC 2.24 (i.e. 0, 1, 5, 10, 20, 30, 40, and 80 μM of CMC 2.24) in the presence or absence of 100 μg/ml PM2.5 in the media for 24 h. […] Then optical density value was measured at 450 nm using a microplate reader (Multiskan Ascent, Thermo Lab systems). […]
# [7] = tested on: BALF cells, alveolar macrophages; test: BALF cell analysis in emphysematous SP-D KO mice; format: in vivo, mouse; settings: 40 mg/kg oral gavage daily for seven days
# MMP-9 = MMP-9 activity in BALF of SP-D KO mice (gelatin zymography); format: in vivo, mouse; settings: emphysematous SP-D KO mice, 40 mg/kg oral gavage daily for seven days; p<0.05
# [8] = cited from earlier work
compound,measurement,setting,value
O=C(/C=C/c1ccc(O)cc1)C(C(=O)/C=C/c1ccc(O)cc1)C(=O)Nc1ccccc1 [CMC2.24],cell counts in the peritoneal exudates (PEs),[1],normalized
same,chemotactic activity of PMNs and macrophages,[1],normalized
same,difference in Lipoxin A4 levels between normal rats and treated diabetic rats,Lipoxin A4,no statistically significant difference
same,IL-1β/lipoxin A4 hyper-inflammatory ratio,[2],did not significantly reduce
same,inflammatory changes in lung tissue,"[3]; COPD mice exposed to 125 μg PM2.5, 100 μg orally daily for 7 days",protected the mice from developing the inflammatory changes
same,lung injury histopathologic score,"[3]; COPD mice exposed to PM2.5, by gavage daily for 7 days, P<0.01",significant reduction
same,goblet cell metaplasia (PAS staining),[3]; PM2.5 challenged COPD mice,prevented goblet cell metaplasia
same,chord length,[4],significant reduction
same,overall physical activity,[5],normal activity
same,overall physical activity,[5]; listed as CMC 2.24,marked improvement in overall activity
same,muscle strength (inverted screen test),"[5]; COPD mice, especially PM2.5-exposed",improved mouse muscle strength
same,cell viability (CCK-8) after PM2.5,[6],significant improvement
same,phenotype of alveolar macrophages,[7],healthy and normal phenotype
same,number of alveolar macrophages,[7]; p<0.05,decreased
same,total cell number in the BALF,"[7]; vs vehicle, p<0.05",significantly reduced
same,MMP-9 activity in the BALF,MMP-9,significantly reduced
same,acidity relative to curcumin,[8],~10 fold
same,ionisation state at physiological pH,[8]; physiological pH,exists largely as an enolate
